Measurements reported in PubChem BioAssay AID1259308 (NCATS, 2017)
Purpose: 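Genes whose loss raises luciferase production in HEK293 cells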 (primary screen). System: human HEK293 embryonic kidney cells stably expressing firefly luciferase (HEK-CMV-Luc2-Hygro). Reagents: single siRNA against human genes, 0.8 pmol siRNA per well. Duration: 72 h. Measurement: 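Luciferase light (ONE-Glo) measured on one replicate plate set and viability (CellTiter-Glo) on the other, scaled to a negative control siRNA, with robust z-scores and luciferase per cell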. Reading the numbers: total luciferase, z-score and total luciferase, % of control: higher = more reporter protein produced. Rule for the call: 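An siRNA counts as active if its total luciferase robust z-score exceeds 3; genes with two or more such siRNAs out of three were retested with fresh siRNAs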. Calls: active = raised luciferase; inactive = no rise.
The deposit covers about 59,000 reagents; shown is a part drawn at random. Of all reagents, about 1,510 (2.6%) are marked active. 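Calls use total luciferase alone and ignore viability, so some active siRNAs may act by altering cell number.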 Reagents against one gene are numbered here. Further read-outs or replicates are left out here.

{"gene": "PF4V1 (platelet factor 4 variant 1)", "reagent": 1, "total luciferase, z-score": -0.184, "total luciferase, % of control": 78.2, "activity call": "inactive"}
{"gene": "PF4V1 (platelet factor 4 variant 1)", "reagent": 2, "total luciferase, z-score": -0.351, "total luciferase, % of control": 74.9, "activity call": "inactive"}
{"gene": "PF4V1 (platelet factor 4 variant 1)", "reagent": 3, "total luciferase, z-score": -1.31, "total luciferase, % of control": 55.9, "activity call": "inactive"}
{"gene": "FNDC7 (fibronectin type III domain containing 7)", "reagent": 1, "total luciferase, z-score": 0.73, "total luciferase, % of control": 96.4, "activity call": "inactive"}
{"gene": "FNDC7 (fibronectin type III domain containing 7)", "reagent": 2, "total luciferase, z-score": 0.274, "total luciferase, % of control": 87.3, "activity call": "inactive"}
{"gene": "FNDC7 (fibronectin type III domain containing 7)", "reagent": 3, "total luciferase, z-score": 0.388, "total luciferase, % of control": 89.6, "activity call": "inactive"}
{"gene": "PYROXD2 (pyridine nucleotide-disulphide oxidoreductase domain 2)", "reagent": 1, "total luciferase, z-score": 0.903, "total luciferase, % of control": 99.8, "activity call": "inactive"}
{"gene": "PYROXD2 (pyridine nucleotide-disulphide oxidoreductase domain 2)", "reagent": 2, "total luciferase, z-score": 1.35, "total luciferase, % of control": 109, "activity call": "inactive"}
{"gene": "PYROXD2 (pyridine nucleotide-disulphide oxidoreductase domain 2)", "reagent": 3, "total luciferase, z-score": 0.17, "total luciferase, % of control": 85.3, "activity call": "inactive"}
{"gene": "ABCG4 (ATP binding cassette subfamily G member 4)", "reagent": 1, "total luciferase, z-score": 0.668, "total luciferase, % of control": 95.2, "activity call": "inactive"}
{"gene": "ABCG4 (ATP binding cassette subfamily G member 4)", "reagent": 2, "total luciferase, z-score": -0.3, "total luciferase, % of control": 75.9, "activity call": "inactive"}
{"gene": "ABCG4 (ATP binding cassette subfamily G member 4)", "reagent": 3, "total luciferase, z-score": 1.38, "total luciferase, % of control": 109, "activity call": "inactive"}
{"gene": "UQCRFS1", "reagent": 1, "total luciferase, z-score": 0.634, "total luciferase, % of control": 94.5, "activity call": "inactive"}
{"gene": "UQCRFS1", "reagent": 2, "total luciferase, z-score": 0.181, "total luciferase, % of control": 85.5, "activity call": "inactive"}
{"gene": "UQCRFS1", "reagent": 3, "total luciferase, z-score": 0.304, "total luciferase, % of control": 87.9, "activity call": "inactive"}
{"gene": "TTYH1 (tweety family member 1)", "reagent": 1, "total luciferase, z-score": 2.61, "total luciferase, % of control": 134, "activity call": "inactive"}
{"gene": "TTYH1 (tweety family member 1)", "reagent": 2, "total luciferase, z-score": 0.854, "total luciferase, % of control": 98.9, "activity call": "inactive"}
{"gene": "TTYH1 (tweety family member 1)", "reagent": 3, "total luciferase, z-score": -1.2, "total luciferase, % of control": 58, "activity call": "inactive"}
{"gene": "PYGM (glycogen phosphorylase, muscle associated)", "reagent": 1, "total luciferase, z-score": 0.433, "total luciferase, % of control": 90.5, "activity call": "inactive"}
{"gene": "PYGM (glycogen phosphorylase, muscle associated)", "reagent": 2, "total luciferase, z-score": -0.45, "total luciferase, % of control": 72.9, "activity call": "inactive"}
{"gene": "PYGM (glycogen phosphorylase, muscle associated)", "reagent": 3, "total luciferase, z-score": -0.732, "total luciferase, % of control": 67.3, "activity call": "inactive"}

4 consecutive entries already listed:
{"gene": "PF4V1 (platelet factor 4 variant 1)", "reagent": 1, "total luciferase, z-score": -0.184, "total luciferase, % of control": 78.2, "activity call": "inactive"}
{"gene": "PF4V1 (platelet factor 4 variant 1)", "reagent": 2, "total luciferase, z-score": -0.351, "total luciferase, % of control": 74.9, "activity call": "inactive"}
{"gene": "PF4V1 (platelet factor 4 variant 1)", "reagent": 3, "total luciferase, z-score": -1.31, "total luciferase, % of control": 55.9, "activity call": "inactive"}
{"gene": "FNDC7 (fibronectin type III domain containing 7)", "reagent": 1, "total luciferase, z-score": 0.73, "total luciferase, % of control": 96.4, "activity call": "inactive"}

The results go on:
{"gene": "NBPF6 (NBPF member 6)", "reagent": 1, "total luciferase, z-score": 1.16, "total luciferase, % of control": 105, "activity call": "inactive"}
{"gene": "NBPF6 (NBPF member 6)", "reagent": 2, "total luciferase, z-score": -0.697, "total luciferase, % of control": 68, "activity call": "inactive"}
{"gene": "NBPF6 (NBPF member 6)", "reagent": 3, "total luciferase, z-score": -0.1, "total luciferase, % of control": 79.9, "activity call": "inactive"}
{"gene": "DCLRE1C (DNA cross-link repair 1C)", "reagent": 1, "total luciferase, z-score": 0.288, "total luciferase, % of control": 87.6, "activity call": "inactive"}
{"gene": "DCLRE1C (DNA cross-link repair 1C)", "reagent": 2, "total luciferase, z-score": -1.79, "total luciferase, % of control": 46.2, "activity call": "inactive"}
{"gene": "DCLRE1C (DNA cross-link repair 1C)", "reagent": 3, "total luciferase, z-score": 0.0909, "total luciferase, % of control": 83.7, "activity call": "inactive"}
{"gene": "IQSEC3 (IQ motif and Sec7 domain ArfGEF 3)", "reagent": 1, "total luciferase, z-score": 0.655, "total luciferase, % of control": 94.9, "activity call": "inactive"}
{"gene": "IQSEC3 (IQ motif and Sec7 domain ArfGEF 3)", "reagent": 2, "total luciferase, z-score": -0.746, "total luciferase, % of control": 67.1, "activity call": "inactive"}
{"gene": "IQSEC3 (IQ motif and Sec7 domain ArfGEF 3)", "reagent": 3, "total luciferase, z-score": -1.56, "total luciferase, % of control": 50.8, "activity call": "inactive"}
{"gene": "RUSC1-AS1 (RUSC1 antisense RNA 1)", "reagent": 1, "total luciferase, z-score": 0.336, "total luciferase, % of control": 88.6, "activity call": "inactive"}
{"gene": "RUSC1-AS1 (RUSC1 antisense RNA 1)", "reagent": 2, "total luciferase, z-score": 0.486, "total luciferase, % of control": 91.6, "activity call": "inactive"}
{"gene": "RUSC1-AS1 (RUSC1 antisense RNA 1)", "reagent": 3, "total luciferase, z-score": -2.03, "total luciferase, % of control": 41.4, "activity call": "inactive"}
